Holding throughout (test): Cytotoxic screening
What all share (type): cell-based

For assay [1], the system named is human breast adenocarcinoma (MCF-7). The note with it: MCF7, read-out: IC50 MCF-7. The procedure: (§1) Human colon carcinoma (HCT-116), human hepatocellular carcinoma (HEPG-2), adenocarcinomic human alveolar basal epithelial cell (A-549), and human breast adenocarcinoma (MCF-7) cell lines were obtained from the American Type Culture Collection (ATCC, Rockville, MD). The cells were grown on RPMI-1640 medium supplemented with 10 % inactivated fetal calf serum and 50 µg/ml gentamycin. The cells were maintained at 37 °C in a humidified atmosphere with 5 % CO2 and were subcultured two to three times a week. Potential cytotoxicity of the compounds was evaluated on tumor cells using the method of Gangadevi and Muthumary (2007[21]) (Klancnik et al., 2010[36]). The cells were grown as monolayers in growth RPMI-1640. The monolayers of 104 cells adhered at the bottom of the wells in a 96-well microtiter plate incubated for 24 h at 37 °C in a humidified incubator with 5 % CO2. The monolayers were then washed with sterile phosphate buffered saline (0.01 M pH 7.2) and simultaneously the cells were treated with 100 µL from different dilutions of tested sample in fresh maintenance medium and incubated at 37 °C. A control of untreated cells was made in the absence of tested sample. Positive controls containing doxorubicin were also tested as a reference drug for comparison. Six wells were used for each concentration of the test sample. Every 24 hours an observation under the inverted microscope was made. The number of the surviving cells was determined by staining the cells with crystal violet (Mosmann, 1983[42]; Gangadevi and Muthumary, 2007[21]) followed by cell lysing using 33 % glacial acetic acid and reading the absorbance at 590 nm using microplate reader (SunRise, TECAN, Inc, USA) after well mixing. The absorbance values from untreated cells were considered as 100 % proliferation. The number of viable cells was determined using microplate reader as previously mentioned before and the percentage of […] was calculated as [1-(ODt/ODc)] x 100 % where ODt is the mean optical density of wells treated with the tested sample and ODc is the mean optical density of untreated cells. The relation between surviving cells and drug concentration was plotted to get the survival curve of each tumor cell line after treatment with the specified compound. The 50 % inhibitory concentration (IC50), the concentration required to cause toxic effects in 50 % of intact cells, was estimated from graphic plots.
(§2) The in vitro cytotoxic activity was performed by MTT assay (Mosmann, 1983[42]; Alley et al., 1988[6]) against three human carcinoma cell lines: Human colon carcinoma (HCT-116), human breast adenocarcinoma (MCF-7), and human hepatocellular carcinoma (HEPG-2).

Assay [2] deals with Human colon carcinoma (HCT-116). The conditions noted are these: HCT-116, read-out: IC50 HCT-116. As for the experimental part:
as §1, §2

Assay [3] has as its system human hepatocellular carcinoma (HEPG-2). The conditions noted are these: HepG2, read-out: IC50 HepG-2. As for the experimental part: as §1, §2

Experimental findings from PMC5547389, “Structure-activity relationships and molecular docking studies of chromene and chromene based azo chromophores: A novel series of potent antimicrobial and anticancer agents” (EXCLI Journal, 2017) are described below.

SMILES strings stand for the structures. In brackets after ≈: the same amount, converted by molar mass.

As usually defined, the IC50 is the midpoint of a concentration-inhibition curve. As for `COc1cc2c(c(OC)c1OC)-c1ccc(OC)c(=O)cc1[C@@H](NC(C)=O)CC2` [Colchicine, reference compound], the figures for the IC50 in assay [1], in assay [2] and in assay [3] were 17.7 µg/mL (≈ 44.3 µM), 42.8 µg/mL (≈ 107 µM) and 10.6 µg/mL (≈ 26.5 µM), respectively.
With `Cc1ccc(NC(=O)c2ccc(CN3CCN(C)CC3)cc2)cc1Nc1nccc(-c2cccnc2)n1` [Imatinib, reference compound], the IC50 in assay [1] came out at 24.6 µg/mL (≈ 49.8 µM); in assay [3] it was 18.6 µg/mL (≈ 37.7 µM).
